“And” between values parts separate entries of the source, which are not always exact repeats. Equal values may be shown once. Some of the results follow. The main result of the screen is listed elsewhere. These columns were measured beside it and carry no call. Compounds called inactive in the main read-out are mostly missing here. Potencies come from curve fits of mixed quality, noted in brackets.

The assay is described as follows: qHTS Assay to Find Inhibitors of Chronic Active B-Cell Receptor Signaling. The note with it: ABC-DLBCL IkBa-CBG/CBR reporter, luminescence ratio (green luciferase fused to IkBa over red control in TMD8 lymphoma cells), 4 h. In a few lines: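 Cell line TMD8 (human ABC DLBCL), stably expressing tet-inducible CBG68-IkBa fusion and CBR; IMDM/0.5% FBS; cpd up to 46 uM; dox induction, 4 h, 37C/5% CO2; dual luminescence; green/red ratio; MG132 control.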
For orientation: qHTS replaces the single test concentration by a dilution series.

Where [1] appears, read: measured here: CBR red luminescence, cell number.
[2] abbreviates: measured here: IkBa-CBG green luminescence.

As to `O=C1N/C(=C/c2ccc(Br)s2)C(=O)N1c1ccccc1`, the AC50 – broadly, the midpoint of the concentration-response curve, whichever way the signal moves – under setting [1] is 11.2 µM [falling, partial curve].

In the case of `O=S(=O)(c1ccccc1Cl)N1CCCC1c1nc(-c2ccc(Cl)cc2)no1` (stereo not given), the concentration at half-maximal activity (AC50) under setting [1] is 16.4 µM [falling, partial curve, poor fit].

Turning to `CCCCCCc1cc2cc(-c3nnc(-c4ccccc4OC)o3)c(=O)oc2cc1O`, the AC50 under setting [1] is 11.6 µM [falling, partial curve, poor fit].

Take `CC1Cc2ccccc2N1C(=O)CSC1=NCCS1` (stereo not given): under setting [1], the AC50 is 3.98 µM [rising, full curve, poor fit].

`COc1ccc(OC)c(NC(=O)c2cc3c(Cl)nc4ccccc4c3s2)c1`: the AC50 under setting [1] is 1.3 µM [falling, full curve, poor fit].

Take `C[C@H](CCC(=O)O)[C@H]1CC[C@H]2[C@@H]3[C@H](O)C[C@@H]4C[C@H](O)CC[C@]4(C)[C@H]3CC[C@]12C`: under setting [1], the AC50 was 25.9 µM [falling, single point].

Consider `COc1ccc2[nH]c(=O)c(CN(Cc3nnnn3Cc3ccccc3)CC3CCCO3)cc2c1` (stereo not given), for which the AC50 under setting [1] was 2.24 µM [rising, partial curve, poor fit].

Turning to `COc1ccc2[nH]c3c(c2c1)CCN1C(=O)C(CC(=O)NCc2cccc(C(F)(F)F)c2)C[C@H](C(=O)N2CCCCC2)[C@@]31CCc1ccccc1` (stereo not given in full), under setting [1], the AC50 is 29.1 µM [rising, single point].

With `Cc1ccc(NC2CCCN(C(=O)CN3C(=O)c4ccccc4C3=O)C2)cc1C` (stereo not given), under setting [1], the AC50 is 35.5 µM [rising, single point].

As to `CCOc1cc2c3c(c1)C1(Nc4ccccc4S1)C(=O)N3C(C)(C)CC2C` (stereo not given), the AC50 under setting [1] is 0.058 µM [falling, full curve, poor fit].

Regarding `NNC(=O)COc1ccccc1F`, the AC50 under setting [1] is 18.4 µM [rising, partial curve, poor fit].

As to `C/C(=N\NC(=O)C(C)n1nc(C)c([N+](=O)[O-])c1C)c1ccccc1O` (stereo not given), the AC50 under setting [2] was 9.2 µM [falling, partial curve].

For `COc1ccc2nc(Nc3ccc4c(c3)OCO4)sc2c1`, the AC50 under setting [1] was 11.6 µM [falling, partial curve].

`Fc1ccc(-c2nnn3c2nc(NCc2ccccc2)c2ccccc23)cc1`: the AC50 under setting [1] is 7.08 µM [falling, partial curve, poor fit].

For the compound `COc1cccc(Nc2ccc(C(=O)O)cc2N)c1`, under setting [1], the AC50 was 0.631 µM [falling, full curve].

Regarding `COc1ccc(C2=NC(C(F)(F)F)(C(F)(F)F)c3c(n(C)c(=O)n(C)c3=O)N2)cc1`, the AC50 under setting [1] was 0.0891 µM [rising, full curve, poor fit].

In the case of `Cc1ccccc1N(CC(=O)Nc1ccccc1C(=O)O)S(C)(=O)=O`, the AC50 under setting [1] is 7.08 µM [falling, partial curve, poor fit].

`S=c1[nH]c2cc3ccccc3cc2[nH]1`: the AC50 under setting [1] was 5.62 µM [falling, partial curve].

Consider `CN1CCN(C(=O)CN(Cc2ccccc2)S(C)(=O)=O)CC1`, for which the AC50 under setting [1] is 29.1 µM [falling, single point].

Regarding `O=C(CCCCl)NC(=S)Nc1ccc(N2CCOCC2)cc1`, the AC50 under setting [1] is 3.16 µM [rising, partial curve, poor fit].

Turning to `Cc1ccc2[nH]c(=O)c(CN(CCN3CCOCC3)C(=O)Nc3ccccc3F)cc2c1`, the AC50 under setting [1] is 5.17 µM [rising, full curve, poor fit].

As to `N#CC1=C(N)Oc2cc(N)ccc2C1c1ccc(F)cc1` (stereo not given), the AC50 under setting [1] is 29.1 µM [falling, single point].

With `COc1cc(C(=O)O)ccc1OCc1c(C)noc1C`, the AC50 under setting [1] was 29.1 µM [rising, single point].

Consider `CC(=O)Nc1ccc(S(=O)(=O)NC2CC(=O)N(c3cccc(F)c3)C2)cc1` (stereo not given), for which the AC50 under setting [1] is 0.82 µM [rising, partial curve, poor fit].

`Cc1nc(CNS(=O)(=O)c2ccc(Br)cc2)cs1`: the AC50 under setting [1] is 20 µM [rising, single point].

In the case of `O=C(Nc1ccccc1C(F)(F)F)c1cc2ncc(CCCl)cn2n1`, the AC50 under setting [1] is 6.51 µM [rising, partial curve, poor fit].

As for `O=C(Nc1ccc(Cl)cc1)Nc1nnc(CSc2ccc(Cl)cc2)s1`, the AC50 under setting [1] was 5.8 µM [rising, full curve].

Consider `Cc1cc(=O)oc2cc(OCC3CC(c4ccc(Cl)cc4)=NO3)ccc12` (stereo not given), for which, under setting [1], the AC50 is 23.1 µM [rising, partial curve, poor fit].

On to `Cc1nc2cc(-c3cccc(F)c3)nn2c(N2CCN(C(=O)c3ccco3)CC2)c1C`, for which the AC50 under setting [1] is 20.6 µM [rising, single point].

As for `CC1=C(C(N)=O)C(c2ccccn2)n2nc(SCc3ccccc3)nc2N1` (stereo not given), the AC50 under setting [1] was 14.6 µM [falling, partial curve, poor fit].

Consider `CCOc1c(OC)cccc1C1CC(=O)Nc2cc(OC)c(OC)cc21` (stereo not given), for which the AC50 was 2.06 µM [rising, full curve] under setting [1] and 5.8 µM [falling, partial curve] under setting [2].

For `COc1ccc2nc(SCC(=O)NC(C)c3ccccc3)[nH]c2c1` (stereo not given), the AC50 under setting [1] was 2.59 µM [rising, full curve].

Take `S=C(NCCSCc1c(Cl)cccc1Cl)Nc1ccccc1`: under setting [1], the AC50 was 0.1 µM [rising, full curve, poor fit].

As for `CCn1nc(C(=O)N2CCN(Cc3nc4ccccc4s3)CC2)c2ccccc2c1=O`, the AC50 under setting [1] was 2.59 µM [rising, full curve, poor fit].

As for `CCCCCCc1nc(C(N)=O)c2[nH]c(=O)n(-c3ccc(OC)cc3OC)c2n1`, the AC50 under setting [1] was 2 µM [rising, partial curve, poor fit].

Take `CN(c1ccccc1)S(=O)(=O)c1cccc(NS(=O)(=O)c2cccc(C(=O)O)c2)c1`: the AC50 under setting [1] was 16.4 µM [rising, single point].

For the compound `CCOC(=O)c1c(NC(=O)c2cc(C)oc2C)sc(C(=O)Nc2ccc(Cl)cc2)c1C`, the AC50 under setting [1] was 35.5 µM [falling, single point].

For `CC(C)NS(=O)(=O)c1ccc(Oc2ncc(C(F)(F)F)cc2Cl)cc1`, the AC50 under setting [1] was 0.00461 µM [rising, full curve, poor fit].

Take `Cc1ccc(C(C)C)c(OCc2nn(CC(=O)c3ccc(Cl)cc3)c3[n+]2CCCCC3)c1`: the AC50 under setting [1] was 14.1 µM [falling, single point].

Turning to `C/C=C/C=C/C(=O)Nc1nccs1`, under setting [1], the AC50 was 20.6 µM [falling, partial curve, poor fit].

Turning to `COc1ccc(C(=O)O)cc1S(=O)(=O)Nc1ccc(Oc2ccccc2)cc1`, the AC50 under setting [1] was 16.4 µM [falling, partial curve].

Consider `COCCNC(=S)N/N=C/c1ccc(N2CCOCC2)cc1`, for which the AC50 by setting is: under setting [1], 23.1 µM [falling, single point]; under setting [2], 20.6 µM [falling, single point].

As to `CC(=O)c1ccc(C(=O)N(CCN(C)C)c2nc3c(Cl)cccc3s2)cc1`, the AC50 under setting [1] was 20 µM [falling, single point].

With `Cc1ccc(C2c3c(oc4ccccc4c3=O)C(=O)N2c2nnc(C(C)C)s2)o1` (stereo not given), the AC50 under setting [1] was 0.092 µM [rising, full curve, poor fit].

On to `CC1(C)CC(=O)c2sc(NC(=O)CCS(=O)(=O)c3ccccc3)nc2C1`, for which, under setting [1], the AC50 is 16.4 µM [falling, partial curve].

On to `O=C(Nc1ccnn1C1CCN(Cc2cccc(O)c2)CC1)C1CCCC1`, for which the AC50 under setting [1] is 14.1 µM [rising, partial curve, poor fit].

Regarding `O=C(Nc1cc(C(F)(F)F)ccc1F)C1CCCCC1`, under setting [1], the AC50 is 5.17 µM [falling, single point].

For the compound `CC(C)N(Cc1cc2ccccc2[nH]c1=O)C(=O)C1CCCCC1`, the AC50 was 14.6 µM [falling, partial curve] under setting [1] and 14.6 µM [rising, partial curve, poor fit] under setting [2].

Take `Cc1ccc(CONC(=O)c2ccccc2Cl)cc1`: the AC50 under setting [1] is 29.1 µM [falling, single point].

As for `CCc1nonc1NC(=O)c1oc2ccc(Cl)cc2c1C`, under setting [1], the AC50 is 2.51 µM [rising, partial curve, poor fit].

Take `CC[C@H](C)C(=O)O[C@H]1CCC=C2C=C[C@H](C)[C@H](CC[C@@H]3C[C@@H](O)CC(=O)O3)[C@H]21`: the AC50 under setting [1] is 35.5 µM [falling, single point] and 7.08 µM [falling, partial curve].

As to `CC[C@]12c3[nH]c4cc(CCC(=O)N(C)C)ccc4c3CCN1C(=O)[C@@H](CC(=O)NCc1ccco1)C[C@@H]2C(=O)N1CCN(C(=O)c2ccco2)CC1`, the AC50 is, setting by setting: under setting [1], 2.31 µM [rising, full curve]; under setting [2], 16.4 µM [falling, partial curve].

Take `Cc1cccc(NC(=O)NNC(=O)c2cc(-c3ccccc3Cl)nc3ccccc23)c1`: under setting [1], the half-maximal activity concentration (AC50) is 28.2 µM [falling, single point].

As to `O=[N+]([O-])c1ccccc1C1Nc2cccc3cccc(c23)N1`, the AC50 under setting [1] was 3.26 µM [falling, single point].

For the compound `c1ccc(-n2c(-c3cccs3)nc3nc4ccccc4nc32)cc1`, under setting [1], the AC50 was 0.651 µM [rising, full curve].

For `O=C(Nc1cccc(-c2cccc(Cl)c2)c1)C1CCN(C2CCC2)CC1`, the AC50 under setting [1] was 35.5 µM [falling, single point].

For `COc1ccc(OC)c(NC(=O)C2CCN(c3ncccn3)CC2)c1`, the AC50 under setting [1] is 17.8 µM [falling, single point].

Regarding `COC(=O)c1cc(C(=O)Nc2nnc(CC(C)C)s2)cc([N+](=O)[O-])c1`, the AC50 under setting [1] was 4.61 µM [rising, partial curve, poor fit].

`CCCN1CCC(=NNc2ccc(S(=O)(=O)N3CCOCC3)cc2[N+](=O)[O-])CC1`: the AC50 under setting [1] is 10.3 µM [falling, partial curve].

Consider `CCCCCCN=C1CC(C)(C)CC(=O)/C1=C(/O)CCC`, for which, under setting [1], the AC50 is 15.8 µM [falling, single point].

In the case of `CCOC(=O)c1ccccc1NC(=O)CSc1ncc(C(=O)OCC)c(N)n1`, under setting [1], the AC50 was 29.1 µM [falling, single point].
